Data from publication PMC12669790.
Results are given in words; binding and its absence hold for the method and conditions named. Binding seen in cells or lysates may run through a third protein. These calls come from enrichment with a bait or labelling near it, and not all partners need be listed.

By UniProt entry, the sequences of proteins in these tests, tags left out.
UniProt Q8IYM9: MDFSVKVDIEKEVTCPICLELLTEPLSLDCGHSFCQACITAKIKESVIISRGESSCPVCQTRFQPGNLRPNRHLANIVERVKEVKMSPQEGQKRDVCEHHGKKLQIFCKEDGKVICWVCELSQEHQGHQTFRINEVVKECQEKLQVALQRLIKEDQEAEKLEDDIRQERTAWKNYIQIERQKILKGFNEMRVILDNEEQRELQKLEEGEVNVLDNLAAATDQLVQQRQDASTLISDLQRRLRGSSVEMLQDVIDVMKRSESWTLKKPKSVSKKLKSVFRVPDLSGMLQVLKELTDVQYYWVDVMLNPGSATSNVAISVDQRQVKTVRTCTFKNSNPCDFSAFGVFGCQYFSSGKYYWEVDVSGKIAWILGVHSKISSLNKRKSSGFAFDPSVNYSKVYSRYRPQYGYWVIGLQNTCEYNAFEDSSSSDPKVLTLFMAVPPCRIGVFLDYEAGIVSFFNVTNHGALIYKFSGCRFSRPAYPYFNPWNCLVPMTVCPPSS
UniProt Q14258: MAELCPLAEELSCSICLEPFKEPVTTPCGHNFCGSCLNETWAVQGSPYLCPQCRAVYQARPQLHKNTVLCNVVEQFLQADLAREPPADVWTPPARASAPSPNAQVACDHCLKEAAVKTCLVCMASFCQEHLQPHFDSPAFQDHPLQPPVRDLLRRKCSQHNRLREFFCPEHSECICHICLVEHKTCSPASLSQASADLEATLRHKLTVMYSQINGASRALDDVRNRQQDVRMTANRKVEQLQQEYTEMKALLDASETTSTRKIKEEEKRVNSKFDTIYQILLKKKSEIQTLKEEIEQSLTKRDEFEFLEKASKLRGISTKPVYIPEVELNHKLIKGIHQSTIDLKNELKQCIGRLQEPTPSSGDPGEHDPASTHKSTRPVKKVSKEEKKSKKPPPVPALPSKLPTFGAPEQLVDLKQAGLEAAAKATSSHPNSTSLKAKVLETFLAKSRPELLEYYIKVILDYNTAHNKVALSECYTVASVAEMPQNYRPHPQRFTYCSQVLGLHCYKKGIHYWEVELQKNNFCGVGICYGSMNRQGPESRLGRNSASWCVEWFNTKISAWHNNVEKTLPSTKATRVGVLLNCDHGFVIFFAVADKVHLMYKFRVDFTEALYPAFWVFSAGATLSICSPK
UniProt Q13263: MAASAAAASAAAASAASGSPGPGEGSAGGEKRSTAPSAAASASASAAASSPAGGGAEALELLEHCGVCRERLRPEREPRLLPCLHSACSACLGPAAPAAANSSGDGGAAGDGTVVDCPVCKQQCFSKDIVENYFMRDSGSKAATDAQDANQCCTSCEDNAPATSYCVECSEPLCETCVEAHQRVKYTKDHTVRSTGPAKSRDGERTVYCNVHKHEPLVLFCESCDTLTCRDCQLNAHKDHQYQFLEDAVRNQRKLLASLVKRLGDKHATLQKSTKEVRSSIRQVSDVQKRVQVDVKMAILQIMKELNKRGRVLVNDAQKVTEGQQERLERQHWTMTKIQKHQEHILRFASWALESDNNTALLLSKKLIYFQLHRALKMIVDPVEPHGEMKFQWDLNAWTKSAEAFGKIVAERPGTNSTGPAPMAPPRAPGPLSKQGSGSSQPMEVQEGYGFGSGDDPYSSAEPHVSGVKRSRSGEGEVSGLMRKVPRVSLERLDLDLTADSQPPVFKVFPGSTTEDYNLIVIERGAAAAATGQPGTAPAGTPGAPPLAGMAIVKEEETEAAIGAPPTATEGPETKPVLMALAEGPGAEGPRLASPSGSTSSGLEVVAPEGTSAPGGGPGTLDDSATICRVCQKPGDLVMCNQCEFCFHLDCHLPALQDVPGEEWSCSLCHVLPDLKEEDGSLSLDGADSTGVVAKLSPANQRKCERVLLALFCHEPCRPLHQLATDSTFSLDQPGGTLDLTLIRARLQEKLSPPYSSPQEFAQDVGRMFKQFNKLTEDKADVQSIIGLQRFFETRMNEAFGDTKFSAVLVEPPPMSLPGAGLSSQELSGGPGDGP

Each substance was assayed against T1, ETS proto-oncogene 1 (ETS1) (human (endogenous in HUVEC)) (UniProt P14921) (assay: affinity purification with mass spectrometry; supernatant of HUVEC lysate incubated with antibody against ETS1 (#14069, Cell Signaling Technology) overnight at 4 °C, magnetic beads overnight at 4 °C, washed, LC-MS/MS (Q-Exactive)).
T1 sequence: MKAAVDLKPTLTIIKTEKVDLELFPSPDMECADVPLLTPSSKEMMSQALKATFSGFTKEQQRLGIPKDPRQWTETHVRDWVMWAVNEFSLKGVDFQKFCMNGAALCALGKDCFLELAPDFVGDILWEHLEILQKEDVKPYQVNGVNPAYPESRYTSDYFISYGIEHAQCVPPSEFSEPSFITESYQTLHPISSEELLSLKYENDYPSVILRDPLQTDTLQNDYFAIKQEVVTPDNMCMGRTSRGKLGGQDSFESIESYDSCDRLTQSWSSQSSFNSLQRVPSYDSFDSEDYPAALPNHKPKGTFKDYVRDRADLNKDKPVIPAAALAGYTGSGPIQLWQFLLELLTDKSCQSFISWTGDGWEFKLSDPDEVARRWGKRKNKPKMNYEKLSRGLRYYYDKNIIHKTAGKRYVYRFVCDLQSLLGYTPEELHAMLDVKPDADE

binding, binds:
TRIM22 (from UniProt Q8IYM9 1-498), TRIM25 (from UniProt Q14258 1-630), TRIM28 (from UniProt Q13263 1-835)
